PubChem BioAssay AID1159578 | Peter MacCallum Cancer Centre – 2015

Aim: 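siRNA pools altering how lymphatic endothelial cells close a scratch wound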 (primary screen)
System: human lymphatic endothelial cells
Reagents: siRNA pool against human genes, 40 nM
Duration: 48 h after transfection
Measured: 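High-content imaging of dye-stained cells in a scratch assay measures filled wound area and nuclei per well; duplicate means given as ratio to mock and robust z-score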
Scale: migration robust z-score: higher = faster migration into the scratch; migration relative to mock: higher = more scratch area covered than mock; nuclei per well: higher = more cells in the well
Rule for the call: 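Migration changed when robust z exceeds 2 or falls below -2 and mean nuclei number is at least 3300; otherwise not called changed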
Calls: active = migration changed; inactive = no migration change, or too few cells
The whole screen tested about 18,000 reagents; this is a part drawn at random. Over the whole deposit, about 1,030 (5.7%) got an active call. 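Inactive calls also include pools with fewer than 3300 nuclei, whose migration was not assessed.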 Raw values are not corrected between plates. Unmarked entries are inactive.

gene symbol	migration robust z-score	migration class with cell-count check	migration relative to mock	nuclei per well, duplicate mean
ZNF233 (zinc finger protein 233)	-1.15	migration z between -2 and 2; enough cells	0.58	5762
PARP16 (poly(ADP-ribose) polymerase family member 16)	-0.57	migration z between -2 and 2; enough cells	0.74	5836
DTNB (dystrobrevin beta)	-0.9	migration z between -2 and 2; enough cells	0.65	6238
ATF7IP2 (activating transcription factor 7 interacting protein 2)	0.92	migration z between -2 and 2; enough cells	1.12	5724
EXTL1 (exostosin like glycosyltransferase 1)	-0.21	migration z between -2 and 2; enough cells	0.76	6748
OXT (oxytocin/neurophysin I prepropeptide)	0.08	migration z between -2 and 2; enough cells	0.9	5701
LAYN (layilin)	-2.35 (active)	migration z below -2; enough cells	0.28	6580
DNAJA4 (DnaJ heat shock protein family (Hsp40) member A4)	0.54	migration z between -2 and 2; enough cells	0.91	7354
SCML4 (Scm polycomb group protein like 4)	0.32	migration z between -2 and 2; enough cells	0.97	4372
GPR21 (G protein-coupled receptor 21)	0.39	migration z between -2 and 2; enough cells	0.88	5694
FMO3 (flavin containing dimethylaniline monoxygenase 3)	0.62	migration z between -2 and 2; enough cells	0.92	5628
ZNF678 (zinc finger protein 678)	1.73	migration z between -2 and 2; enough cells	1.34	4773

Reformatted: results already given.
gene symbol,migration robust z-score,migration class with cell-count check,migration relative to mock,"nuclei per well, duplicate mean"
SCML4 (Scm polycomb group protein like 4),0.32,migration z between -2 and 2; enough cells,0.97,4372
GPR21 (G protein-coupled receptor 21),0.39,migration z between -2 and 2; enough cells,0.88,5694

The results go on:
gene symbol	migration robust z-score	migration class with cell-count check	migration relative to mock	nuclei per well, duplicate mean
TMEM213 (transmembrane protein 213)	-1.31	under 3300 nuclei; migration not judged	0.54	3278
PROCR (protein C receptor)	1.4	migration z between -2 and 2; enough cells	1.08	5844
SSH3 (slingshot protein phosphatase 3)	0.34	migration z between -2 and 2; enough cells	0.87	5380
TP53INP1 (tumor protein p53 inducible nuclear protein 1)	-0.11	migration z between -2 and 2; enough cells	0.86	5140
FCGR1BP (Fc gamma receptor Ib, pseudogene)	-1.49	migration z between -2 and 2; enough cells	0.5	4500
IVNS1ABP (influenza virus NS1A binding protein)	0.19	migration z between -2 and 2; enough cells	0.94	5600
MYH13 (myosin heavy chain 13)	-0.2	migration z between -2 and 2; enough cells	0.84	7287
REV1 (REV1 DNA directed polymerase)	-1.53	migration z between -2 and 2; enough cells	0.51	6668
TOP3B (DNA topoisomerase III beta)	-0.22	migration z between -2 and 2; enough cells	0.83	6916
HLA-DOB (major histocompatibility complex, class II, DO beta)	0.52	migration z between -2 and 2; enough cells	0.9	6096
OR13A1 (olfactory receptor family 13 subfamily A member 1)	-0.56	migration z between -2 and 2; enough cells	0.74	5125
